This is an account of results in publication PMC9146561.

The target of this assay is GAL4 DNA-binding domain fusion to Vag2 lacking its signal peptide (BD-Vag2ΔSP) (Sporisorium reilianum). Kind of assay: two-hybrid; library screen, Matchmaker Gold Yeast Two-Hybrid system: bait BD-Vag2ΔSP in Y2HGold mated with Y187 carrying the AD cDNA library of S. reilianum-colonized maize; growth on SD medium lacking leucine, tryptophan, adenine and histidine and containing 3-AT.

These are yes or no findings as the source states them, for the method shown. Binding can be weak; no strength is given.

B1: Terpene synthase1 (protein, UniProt Q84ZW8 1-590)
chain: MAMPVKLTPASLSLKAVCCRFSSGGHALRFGSSLPCWRRTPTQRSTSSSTTRPAAEVSSGKSKQHDQEASEATIRQQLQLVDVLENMGISRHFAAEIKCILDRTYRSWLQRHEEIMLDTMTCAMAFRILRLNGYNVSSDELYHVVEASGLHNSLGGYLNDTRTLLELHKASTVSISEDESILDSIGSRSRTLLREQLESGGALRKPSLFKEVEHALDGPFYTTLDRLHHRWNIENFNIIEQHMLETPYLSNQHTSRDILALSIRDFSSSQFTYQQELQHLESWVKECRLDQLQFARQKLAYFYLSAAGTMFSPELSDARTLWAKNGVLTTIVDDFFDVAGSKEELENLVMLVEMWDEHHKVEFYSEQVEIIFSSIYDSVNQLGEKASLVQDRSITKHLVEIWLDLLKSMMTEVEWRLSKYVPTEKEYMINASLTFGLGPIVLPALYFVGPKISESIVKDPEYDELFKLMSTCGRLLNDVQTFEREYNEGKLNSVSLLVLHGGSMSISDAKRKLQKPIDTCRRDLLSLVLREESVVPRPCKELFWKMCKVCYFFYSTTDGFSSQVERAKEVDAVINEPLKLQGSHTLVSDV
Regarding B1, the binding result was “binds”.
